In PubChem BioAssay (EPA / NIEHS):
For part of these data: This list holds what a sample rich in hits left over. Inconclusive results are not listed. The list shows a part of the results, in another mix than the full data. More than one record can exist for a structure, and the calls need not agree. Active and inactive are the calls of the source. Rule for the calls, unless noted: active = hit-call score of the fitted dose curve at least 0.9, where 1 is the maximum; inconclusive = response in the unintended direction; inactive = score below 0.9.

By UniProt entry, the sequences of proteins in these tests, tags left out. Where a name states a change or a piece, a line headed by the entry shows the natural chain unless it says otherwise.
UniProt Q03181: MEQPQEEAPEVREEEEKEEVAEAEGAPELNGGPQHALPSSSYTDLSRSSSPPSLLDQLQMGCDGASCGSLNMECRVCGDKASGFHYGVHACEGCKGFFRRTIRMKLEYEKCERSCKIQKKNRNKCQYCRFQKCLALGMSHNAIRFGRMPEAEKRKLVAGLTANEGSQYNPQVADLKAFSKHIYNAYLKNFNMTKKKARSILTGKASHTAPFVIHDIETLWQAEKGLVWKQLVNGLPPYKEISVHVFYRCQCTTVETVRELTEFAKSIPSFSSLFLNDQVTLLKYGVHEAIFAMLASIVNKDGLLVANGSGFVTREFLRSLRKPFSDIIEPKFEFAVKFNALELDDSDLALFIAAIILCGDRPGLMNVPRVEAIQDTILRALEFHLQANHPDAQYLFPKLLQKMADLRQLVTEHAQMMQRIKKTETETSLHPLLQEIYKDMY
UniProt P11473: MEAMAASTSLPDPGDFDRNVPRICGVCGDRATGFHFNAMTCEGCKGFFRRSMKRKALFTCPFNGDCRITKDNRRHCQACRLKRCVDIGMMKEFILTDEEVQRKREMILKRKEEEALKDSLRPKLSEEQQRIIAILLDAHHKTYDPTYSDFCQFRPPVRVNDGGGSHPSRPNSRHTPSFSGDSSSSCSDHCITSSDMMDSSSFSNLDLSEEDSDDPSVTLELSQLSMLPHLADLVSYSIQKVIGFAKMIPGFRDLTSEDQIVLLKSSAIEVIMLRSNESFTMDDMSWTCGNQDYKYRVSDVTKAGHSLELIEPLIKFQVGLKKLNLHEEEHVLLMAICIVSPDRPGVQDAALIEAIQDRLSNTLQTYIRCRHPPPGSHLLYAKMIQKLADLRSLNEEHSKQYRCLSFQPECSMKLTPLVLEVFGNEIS
UniProt P37231: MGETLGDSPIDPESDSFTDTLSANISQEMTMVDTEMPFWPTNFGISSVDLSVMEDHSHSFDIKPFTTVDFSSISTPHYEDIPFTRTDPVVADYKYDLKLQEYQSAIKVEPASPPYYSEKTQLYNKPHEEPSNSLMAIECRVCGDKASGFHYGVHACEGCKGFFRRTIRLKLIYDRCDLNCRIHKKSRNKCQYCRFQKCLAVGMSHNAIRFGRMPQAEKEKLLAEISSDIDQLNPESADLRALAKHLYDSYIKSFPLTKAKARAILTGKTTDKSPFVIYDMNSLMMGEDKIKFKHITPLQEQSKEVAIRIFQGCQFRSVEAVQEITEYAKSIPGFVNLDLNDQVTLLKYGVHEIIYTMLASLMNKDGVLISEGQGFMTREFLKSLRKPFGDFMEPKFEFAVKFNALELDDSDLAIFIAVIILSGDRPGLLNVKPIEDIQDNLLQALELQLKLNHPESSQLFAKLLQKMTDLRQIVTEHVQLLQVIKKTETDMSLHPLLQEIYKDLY
UniProt Q07869: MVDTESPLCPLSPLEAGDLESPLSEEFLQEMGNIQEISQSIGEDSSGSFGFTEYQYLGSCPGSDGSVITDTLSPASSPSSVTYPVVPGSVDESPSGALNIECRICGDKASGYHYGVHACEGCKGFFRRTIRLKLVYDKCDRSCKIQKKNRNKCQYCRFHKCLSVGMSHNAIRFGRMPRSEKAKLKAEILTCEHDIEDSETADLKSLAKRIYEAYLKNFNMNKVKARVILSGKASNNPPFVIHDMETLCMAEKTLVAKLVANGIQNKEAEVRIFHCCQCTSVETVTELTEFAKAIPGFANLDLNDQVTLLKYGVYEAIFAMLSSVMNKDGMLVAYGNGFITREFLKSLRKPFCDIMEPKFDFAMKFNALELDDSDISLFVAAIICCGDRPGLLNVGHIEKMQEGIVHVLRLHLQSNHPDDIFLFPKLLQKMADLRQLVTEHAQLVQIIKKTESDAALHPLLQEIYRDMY
UniProt P37238, whole entry, looked up: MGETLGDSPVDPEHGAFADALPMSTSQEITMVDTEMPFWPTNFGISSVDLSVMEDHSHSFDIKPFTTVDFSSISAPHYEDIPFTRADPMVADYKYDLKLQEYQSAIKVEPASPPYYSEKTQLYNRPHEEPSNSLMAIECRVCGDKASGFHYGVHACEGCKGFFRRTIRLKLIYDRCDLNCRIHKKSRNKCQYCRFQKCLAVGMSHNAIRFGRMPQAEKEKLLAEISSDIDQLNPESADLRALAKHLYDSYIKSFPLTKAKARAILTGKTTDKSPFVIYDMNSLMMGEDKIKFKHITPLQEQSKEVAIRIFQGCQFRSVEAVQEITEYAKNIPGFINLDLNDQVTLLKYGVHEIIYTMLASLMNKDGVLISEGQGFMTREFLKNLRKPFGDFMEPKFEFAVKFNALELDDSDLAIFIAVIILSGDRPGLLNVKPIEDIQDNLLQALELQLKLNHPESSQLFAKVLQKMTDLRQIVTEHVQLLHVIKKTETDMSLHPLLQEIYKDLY
UniProt P04386, whole entry, looked up: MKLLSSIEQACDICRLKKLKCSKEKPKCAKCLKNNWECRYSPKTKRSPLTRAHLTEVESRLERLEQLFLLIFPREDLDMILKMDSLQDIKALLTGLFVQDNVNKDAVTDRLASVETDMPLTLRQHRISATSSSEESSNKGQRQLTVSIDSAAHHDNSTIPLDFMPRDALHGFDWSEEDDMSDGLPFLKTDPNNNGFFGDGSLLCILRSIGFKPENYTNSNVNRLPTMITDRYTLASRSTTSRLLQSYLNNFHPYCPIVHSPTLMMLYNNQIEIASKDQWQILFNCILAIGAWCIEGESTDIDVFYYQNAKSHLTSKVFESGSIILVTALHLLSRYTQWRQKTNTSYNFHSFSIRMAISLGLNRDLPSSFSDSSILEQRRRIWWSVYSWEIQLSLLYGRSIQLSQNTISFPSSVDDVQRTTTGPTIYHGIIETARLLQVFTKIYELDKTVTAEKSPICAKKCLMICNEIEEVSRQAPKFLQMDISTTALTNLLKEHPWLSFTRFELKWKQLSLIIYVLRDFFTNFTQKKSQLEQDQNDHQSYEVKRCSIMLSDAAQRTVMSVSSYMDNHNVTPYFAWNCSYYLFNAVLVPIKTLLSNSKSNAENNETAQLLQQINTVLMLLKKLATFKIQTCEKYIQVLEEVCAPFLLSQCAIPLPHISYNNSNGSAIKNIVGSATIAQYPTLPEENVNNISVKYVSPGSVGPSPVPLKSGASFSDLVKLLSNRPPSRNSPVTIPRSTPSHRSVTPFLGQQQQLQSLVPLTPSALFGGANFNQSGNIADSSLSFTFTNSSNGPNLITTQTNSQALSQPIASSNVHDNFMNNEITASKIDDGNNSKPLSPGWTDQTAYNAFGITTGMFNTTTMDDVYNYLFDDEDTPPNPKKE
UniProt P16581: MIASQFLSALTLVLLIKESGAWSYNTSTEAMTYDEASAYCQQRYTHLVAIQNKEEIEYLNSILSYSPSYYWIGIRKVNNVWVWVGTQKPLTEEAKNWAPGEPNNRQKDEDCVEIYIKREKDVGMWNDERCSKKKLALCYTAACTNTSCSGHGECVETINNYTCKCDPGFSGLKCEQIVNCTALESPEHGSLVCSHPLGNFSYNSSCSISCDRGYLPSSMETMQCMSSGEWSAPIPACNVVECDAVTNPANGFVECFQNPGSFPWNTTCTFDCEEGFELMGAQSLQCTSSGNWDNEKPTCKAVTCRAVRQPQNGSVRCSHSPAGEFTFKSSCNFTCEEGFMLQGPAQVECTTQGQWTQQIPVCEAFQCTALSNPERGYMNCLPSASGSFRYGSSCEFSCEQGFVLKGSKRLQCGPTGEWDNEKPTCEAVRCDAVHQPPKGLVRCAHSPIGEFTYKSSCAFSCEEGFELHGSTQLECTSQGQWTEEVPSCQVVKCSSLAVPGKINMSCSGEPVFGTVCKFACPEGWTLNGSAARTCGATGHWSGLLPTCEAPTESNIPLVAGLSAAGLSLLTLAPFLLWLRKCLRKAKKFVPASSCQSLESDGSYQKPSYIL

Experiments:
[1] = target: human Peroxisome Proliferator-activated Receptor delta (PPARd), PPARD (gene 5467) (UniProt Q03181); assay: ATG_PPARd_TRANS: Attagene TRANS-FACTORIAL HepG2 Assay for human Peroxisome Proliferator-activated Receptor delta (PPARd) (AID 2283002)
Summary of the method: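 Read-out is induced reporter mRNA, quantified by RT-PCR with fluorescent labelling and capillary electrophoresis after 24 h dosing. Cells are HepG2 transiently carrying multiple GAL4-UAS reporter units driven by exogenous NR-GAL4 chimeras; DMSO serves as baseline.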

[2] = target: human Vitamin D Receptor (VDR), VDR (gene 7421) (UniProt P11473); assay: ATG_VDR_TRANS: Attagene TRANS-FACTORIAL HepG2 Assay for human Vitamin D Receptor (VDR) (AID 2283022)
Summary of the method: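 Transactivation by an exogenous VDR-Gal4 chimera in transiently transfected HepG2 cells was measured as reporter transcript level 24 hours after chemical treatment. RT-PCR products were analysed by capillary electrophoresis and fitted in the positive direction relative to DMSO.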

[3] = ACEA_AR_agonist_AUC_viability: ACEA Biosciences xCELLigence Real-Time Cell Analysis on Androgen Receptor Agonism for Viability (AID 2283775);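 note: viability read 80 hours after compound addition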
Summary of the method: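 22Rv1 cells; impedance growth kinetics; 8-pt 1:4 dilutions from 100 uM top final, ≤0.5% DMSO; n = 2; 80 h read; AUC viability, loss-of-signal vs DMSO.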

[4] = ATG_XTT_Cytotoxicity: Cytotoxicity Assessment in the Attagene TRANS-FACTORIAL HepG2 Assay (AID 2283584)
Summary of the method: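 Viability endpoint from XTT after 24 h chemical exposure of reporter-transfected human HepG2 liver cells; signal loss fitted relative to DMSO negative control.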

[5] = target: Peroxisome proliferator-activated receptor gamma (Homo sapiens) (UniProt P37231); assay: ATG_PPARg_TRANS: Attagene TRANS-FACTORIAL HepG2 Assay for human Peroxisome Proliferator-activated Receptor-gamma (PPARg) (AID 2283007)
Summary of the method: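 HepG2 cells transiently transfected with multiplexed GAL4-UAS reporter units and exogenous chimeric NR-Gal4 proteins; reporter mRNA quantified after 24 h compound exposure by RT-PCR, fluorescent labelling, HpaI digestion and capillary electrophoresis; gain-of-signal fitted versus DMSO baseline.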

[6] = read-out: Transforming growth factor beta 1 (TGFb1), TGFB1 (gene 7040); assay: BSK_KF3CT_TGFb1: BioMAP Diversity Plus: KF3CT Assay for Transforming growth factor beta 1 (TGFb1) Biomarker Activity (AID 2283072; active = hit-call score of the fitted dose curve at least 0.9, where 1 is the maximum; inactive = score below 0.9); conditions: actives raise or lower the signal; primary human keratinocytes with fibroblasts
Summary of the method: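 ELISA quantifies TGF-b1 at 24 h post-dose in a primary human skin co-culture of keratinocytes and fibroblasts, with gain or loss judged against DMSO. Parallel SRB total-protein staining flags overt cytotoxicity.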

[7] = target: human Peroxisome Proliferator-activated Receptor alpha (PPARa), PPARA (gene 5465) (UniProt Q07869); assay: ATG_PPARa_TRANS: Attagene TRANS-FACTORIAL HepG2 Assay for human Peroxisome Proliferator-activated Receptor alpha (PPARa) (AID 2283001)
Summary of the method: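 Reporter transcripts quantified by RT-PCR plus capillary electrophoresis after 24 h treatment, fitted upward relative to DMSO. Cells: human HepG2 transiently carrying multiple GAL4-UAS reporter units driven by NR-Gal4 chimeras.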

[8] = read-out: Transforming growth factor beta 1 (TGFb1), TGFB1 (gene 7040); assay: BSK_BE3C_TGFb1: BioMAP Diversity Plus: BE3C Assay for Transforming growth factor beta 1 (TGFb1) Biomarker Activity (AID 2283036; active = hit-call score of the fitted dose curve at least 0.9, where 1 is the maximum; inactive = score below 0.9); conditions: actives raise or lower the signal; primary human bronchial epithelial cells
Summary of the method: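 ELISA readout of TGF-b1 from human lung bronchial epithelial primary cells, taken 24 h post-treatment. Gain or loss of signal fitted relative to DMSO baseline, with parallel SRB staining for overt cytotoxicity.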

[9] = BSK_CASM3C_Proliferation: Cell Proliferation Assessment in the BioMAP Diversity Plus: CASM3C Assay (AID 2283047; active = hit-call score of the fitted dose curve at least 0.9, where 1 is the maximum; inactive = score below 0.9;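 note: sulforhodamine B total protein stain as relative cell number at 560 nm; sub-confluent cells exposed 48 h before staining; fitted both ways against DMSO so gain or loss of cell number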); conditions: primary human coronary artery smooth muscle cells
[10] = read-out: Lipoprotein lipase (LPL), LPL (gene 4023); assay: LTEA_HepaRG_LPL: Life Technologies and Expression Analysis (LTEA) Assay for Lipoprotein lipase (LPL) using HepaRG (AID 2283515; active = hit-call score of the fitted dose curve at least 0.9, where 1 is the maximum; inactive = score below 0.9); conditions: actives raise or lower the signal; mRNA level, 48 h
Summary of the method: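 LPL transcript levels quantified by TaqMan qRT-PCR against three housekeeping genes after 48 h chemical treatment of HepaRG cells. Eight-point half-log series from 100 uM in 0.5% DMSO, tested in duplicate; bidirectional fitting versus vehicle.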

[11] = target: mouse Peroxisome Proliferator-activated Receptor gamma (PPARg), Pparg (gene 19016) (UniProt P37238); assay: ATG_mPPARg_XSP1: Attagene TRANS-FACTORIAL Multi-Species (XSP1) HepG2 Assay for mouse Peroxisome Proliferator-activated Receptor gamma (PPARg) (AID 2283802)
Summary of the method: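 Readout is reporter mRNA induction, measured by RT-PCR with 6-FAM labelling, HpaI digestion and capillary electrophoresis, 24 h post-dose relative to DMSO. Transient multi-reporter transfection of human HepG2 with mouse PPARg–GAL4 fusion; 3 nM 6-alpha-fluorotestosterone included.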

[12] = target: GAL4 Transcription Factor (Internal Marker), GAL4 (gene 855828) (UniProt P04386); assay: ATG_GAL4_XSP2: Attagene TRANS-FACTORIAL Multi-Species (XSP2) HepG2 Assay for GAL4 Transcription Factor (Internal Marker) (AID 2283814);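 note: GAL4 reporter mRNA background control in MRTU transfected cells not a receptor target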
Summary of the method: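 Background-control readout: gain-of-signal fitted against DMSO. After 24 h exposure of transfected HepG2 (MRTU, GAL4-UAS reporters; 3 nM 6-alpha-fluorotestosterone, 1.5 nM norgestrel present), transcripts quantified by RT-PCR and capillary electrophoresis fluorescence.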

[13] = read-out: E-selectin (Homo sapiens) (UniProt P16581); assay: BSK_3C_Eselectin: BioMAP Diversity Plus: 3C Assay for Eselectin Biomarker Activity (AID 2283015; active = hit-call score of the fitted dose curve at least 0.9, where 1 is the maximum; inactive = score below 0.9;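 note: cell surface E-selectin protein quantified by ELISA 24 h after dosing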); conditions: actives raise or lower the signal; primary human endothelial cells (HUVEC)
Summary of the method: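 E-selectin ELISA readout, fitted bidirectionally relative to DMSO, taken 24 h post-dosing in HUVEC cultures of the 3C system. Overt cytotoxicity tracked with sulforhodamine B staining of parallel wells.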

CYP4A11 (gene 1579) = assay: LTEA_HepaRG_CYP4A11: Life Technologies and Expression Analysis (LTEA) Assay for CYP4A11 using HepaRG (AID 2283486; active = hit-call score of the fitted dose curve at least 0.9, where 1 is the maximum; inactive = score below 0.9); conditions: actives raise or lower the signal; mRNA level, 48 h
Summary of the method: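 Readout is CYP4A11 transcript level by qRT-PCR, normalized to three housekeeping genes and fitted bidirectionally against 0.5% DMSO. Human HepaRG cells were treated 48 h, in duplicate, with an 8-point half-log series topping at 100 uM.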

[14] = ACEA_AR_antagonist_AUC_viability: ACEA Biosciences xCELLigence Real-Time Cell Analysis on Androgen Receptor Antagonism for Viability (AID 2283776);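 note: 22Rv1 human prostate cancer cells growing on impedance electrode plates; area under impedance growth curve at 80 h after dosing as viability; hits lower the growth signal relative to DMSO meaning cytotoxicity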
Summary of the method: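 Impedance read-out (RT-CES): area under growth curve at 80 h post-dose, loss of signal scored vs DMSO baseline. 22Rv1 cells; 8-pt 1:4 series, top 100 uM final, ≤0.5% DMSO; biological duplicate.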

CCC[CH2][Sn]([CH2]CCC)([CH2]CCC)[CH2]CCC
AC50 [1]: active: 33.4 µM
outcome [2]: inactive
AC50 [3]: active: 28.3 µM

O=[N+]([O-])c1cc([N+](=O)[O-])c2ccccc2c1
outcome [1]: inactive
outcome [4]: inactive

O=C(O)C1(c2ccc3c(c2)OC[C@H](Cc2ccc(-c4ccccc4)cc2)[C@H]3O)CCCC1
AC50 [5]: active: 4.72 µM
AC50 [6]: active: 20 µM

Oc1ccc2ccc3cccc4ccc1c2c34
outcome [7]: inactive
AC50 [8]: active: 30.4 µM
AC50 [9]: active: 31 µM

C=CC1(C)OC(=O)N(c2cc(Cl)cc(Cl)c2)C1=O (stereo not drawn)
AC50 [5]: active: 27.1 µM
outcome [10]: inactive
AC50 [11]: active: 19.8 µM
outcome [12]: inactive

CC(C)NC(=O)N1CC(=O)N(c2cc(Cl)cc(Cl)c2)C1=O
outcome [7]: inactive
outcome [13]: inactive
AC50 (CYP4A11 (gene 1579)): active: 13.3 µM
AC50 [14]: active: 9.92 µM
